{"source": "patent US10391151B2", "about": "“Dilute surfactant or isolated surfactant protein solution for the reduction of surface tension in the lung” (The Trustees of the Stevens Institute of Technology, priority 2015, dated 2019)", "system": "heterogeneously flooded region of the isolated, perfused adult rat lung", "assay": "Ventilation injury score in the isolated, perfused adult rat lung (Method 2)", "settings": "flooding solution normal saline with 5% albumin; solutes at about the concentrations present in 1% SURVANTA solution; n=1 or 2/group (FIG. 2A)", "description": "Method 2. Ventilation ‘injury score’ in the adult rat lung. In the isolated, perfused adult rat lung, a surface alveolus is micropunctured and a non-fluorescent test solution is instilled. In experimental regions, a sufficiently large volume of liquid is instilled to generate a pattern of heterogeneous alveolar flooding; in control regions, a sufficiently small volume of liquid is instilled that the liquid spontaneously clears from the region, leaving behind a micropunctured-but-aerated region. Fluorescent dye, at a low concentration verified not to alter surface tension, is included in the perfusate. […] Alveolar liquid fluorescence at all time points is normalized by capillary fluorescence.\nAt baseline, alveolar liquid fluorescence (in flooded alveoli of experimental regions or in the liquid lining layer of control, aerated regions) is low and constant in all regions. Following ventilation, alveolar liquid fluorescence remains unchanged in aerated regions but continually increases with time in heterogeneously flooded regions. […] The increase above baseline in normalized alveolar liquid fluorescence at the last time point of the experiment is used as an injury score. The injury score, which indicates the rate of increase of normalized fluorescence following ventilation, correlates with surface tension of the test solution. […]", "note": "At least one peptide structure holds a part that was inferred or is arguable (an end, a ring closure or a residue). Where no end group is shown, it is not given here."}
{"sequence": "GIPFFPVHLKRLKLLLLLLLLILLLILGALLMGL [sSP-Cff-leuc]", "values": [{"measurement": "Injury score", "value": "lower injury score"}]}
